Measurements as given in the supplement of paper PMC8166895.
Values joined by “and” are separate entries in the source; they are usually repeats but may differ in a detail not shown here. Identical values can stand only once. Counter-ions that a name gives are not always drawn. This is one part of the list. Most values lie at the level of the controls, where differences are scatter.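 Melting temperature was read by differential scanning fluorimetry in a single-replicate pilot screen of a library of approved drugs and clinical or known-target compounds. Compounds raising the melting point by at least 2 °C were the top stabilizing hits, and negative shifts mean destabilization.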

system: SARS-CoV-2 main protease (Mpro, nsp5); assay: thermal shift ΔTm of Mpro relative to plate average Tm; higher = stronger thermal stabilization of Mpro (binding); details: 10 µM; protein concentration 1 µM

| SMILES | thermal shift ΔTm of Mpro |
| --- | --- |
| C=C1/C(=C\C=C2/CCC[C@]3(C)[C@@H]([C@H](C)CCCC(C)C)CC[C@@H]23)C[C@@H](O)C[C@@H]1O [Alfacalcidol] | 0.263 °C |
| COC(=O)c1ccccc1C(=O)c1ccc(OCCN2CCCCC2)cc1 [Pitofenone hydrochloride] | 0.0456 °C |
| Clc1ccc([C@]23CNC[C@H]2C3)cc1Cl [Amitifadine hydrochloride] | 0.29 °C |
| CN1CCC[C@@H]1Cc1c[nH]c2ccc(CCS(=O)(=O)c3ccccc3)cc12 [Eletriptan HBr] | -0.1 °C |
| CCCCCCCCCCCCCC(=O)[O-].CCCCCCCCCCCCCC(=O)[O-].N[C@@H]1CCCC[C@H]1N.[Pt+2] [Miriplatin] | -0.0207 °C |
| Nc1ccccc1S(N)(=O)=O [2-Aminobenzenesulfonamide] | 0.143 °C |
| COc1ccccc1Oc1c(NS(=O)(=O)c2ccc(C(C)(C)C)cc2)nc(-c2ncccn2)nc1OCCO [Bosentan Hydrate] | 0.0137 °C |
| COc1ccccc1Oc1c(NS(=O)(=O)c2ccc(C(C)(C)C)cc2)nc(-c2ncccn2)nc1OCCO [Bosentan] | -0.162 °C |
| CC(=O)c1ccc2c(c1)c1cc(C(C)=O)ccc1n2CCNC(C)C [CBL0137 hydrochloride] | -0.0812 °C |
| C[S+]([O-])c1ccc(-c2nc(-c3ccc(F)cc3)c(-c3ccncc3)[nH]2)cc1 (stereo unspecified) | 0.0841 °C |
| COc1cc2c(Oc3ccc(NC(=O)C4(C(=O)Nc5ccc(F)cc5)CC4)cc3F)ccnc2cc1OCCCN1CCOCC1 | 0.069 °C |
| COCCNc1cc(NC(=O)N2CCCc3cc(CN4CCN(C)CC4=O)c(C=O)nc32)ncc1C#N [Roblitinib] | -0.0237 °C |
| OCc1cccnc1 [Roniacol] | -0.0653 °C |
| COc1cc(N2CCC(N(C)C)CC2)ccc1Nc1ncc(Cl)c(Nc2ccccc2P(C)(C)=O)n1 | -0.331 °C |
| O=C(O)c1cn(C2CC2)c2cc(N3CCNCC3)c(F)cc2c1=O [Ciprofloxacin hydrochloride] | -0.00814 °C |
| CCOc1nc2cccc(C(=O)OCc3oc(=O)oc3C)c2n1Cc1ccc(-c2ccccc2-c2noc(=O)[nH]2)cc1 [Azilsartan Medoxomil] | -0.0283 °C |
| CN1c2cc(O)c(N=NC(N)=O)cc2CC1S(=O)(=O)O (stereo unspecified) [Carbazochrome sodium sulfonate (AC-17)] | -0.0439 °C |
| Cc1cc(-c2nc3sc4c(c3c(=O)[nH]2)CCN(C)C4)cc(C)c1O | -0.0107 °C |
| C#CCN[C@@H]1CCc2ccccc21 [Rasagiline] | 0.111 °C |
| C#CCN[C@@H]1CCc2ccccc21 [Rasagiline Mesylate] | 0.163 °C |
| COc1cc(OC2CCN(C)CC2)ccc1Nc1ncc2c(n1)n(C1CCCC1)c(=O)n2C | -0.168 °C |
| C/C(=C\c1csc(C)n1)[C@@H]1C[C@@H]2O[C@]2(C)CCC[C@H](C)[C@H](O)[C@@H](C)C(=O)C(C)(C)[C@@H](O)CC(=O)N1 [Ixabepilone] | -0.0645 °C |
| Cc1cc(C(C)(C)C)c(O)c(C(C)(C)C)c1 | -0.242 °C |
| COc1ccc(NS(=O)(=O)c2sc3ccc(Cl)cc3c2C)cc1N1CCNCC1 | -0.317 °C and 0.23 °C |
| CN1CCC(c2c[nH]c3ccc(O)cc23)CC1 | -0.901 °C |
| Nc1n[n+]([O-])c2ccccc2[n+]1[O-] [Tirapazamine] | 0.0386 °C |

| SMILES | thermal shift ΔTm of Mpro |
| --- | --- |
| O=C(Nc1nc2ccc(NC(=O)C34CC5CC(CC(C5)C3)C4)cc2s1)c1ccccc1 | 0.0205 °C |
| CCn1c(C(=O)N(C2CC2)C2CC2)cc2c3c(ncn3C)c(Nc3cc(C)n(C)n3)nc21 | 0.238 °C |
| CCCN1CCCC[C@H]1C(=O)Nc1c(C)cccc1C [Ropivacaine HCl] | 0.0472 °C |
| CCCN1CCCC[C@H]1C(=O)Nc1c(C)cccc1C [Ropivacaine] | 0.0532 °C |
| CC(C)(OCc1nn(Cc2ccccc2)c2ccccc12)C(=O)O [Bindarit] | -0.0579 °C |
| CC(=O)NCCCOc1ccc(C(=O)N2CCC(N3C(=O)CCc4ccccc43)CC2)cc1 | -0.00629 °C |
| Cc1cccc(-c2[nH]c(C(C)(C)C)nc2-c2ccc3c(c2)OCO3)n1 | -0.148 °C |
| CC(NC(=O)c1ccccc1/N=C/c1c(O)ccc2ccccc12)c1ccccc1 (stereo unspecified) [Sirtinol] | -0.197 °C |
| CCN(C(=O)c1c(O)c2c(Cl)cccc2n(C)c1=O)c1ccccc1 [Laquinimod] | -0.0327 °C |
| CN1CC(=O)N2[C@H](c3ccc4c(c3)OCO4)c3[nH]c4ccccc4c3C[C@@H]2C1=O [Tadalafil] | 0.606 °C |
| CC(C)NCC(O)COc1ccc(CCOCC2CC2)cc1 (stereo unspecified) [Betaxolol hydrochloride (Betoptic)] | -0.12 °C |
| CCc1nc(N)nc(N)c1-c1ccc(Cl)cc1 [Pyrimethamine] | -0.126 °C |
| Cc1c(C(=O)NN2CCCCC2)nn(-c2ccc(Cl)cc2Cl)c1-c1ccc(Cl)cc1 [Rimonabant] | -0.526 °C |
| Cc1c(C(=O)NN2CCCCC2)nn(-c2ccc(Cl)cc2Cl)c1-c1ccc(Cl)cc1 [Rimonabant hydrochloride] | -0.162 °C |
| COc1cc2c(cc1OC)CC(=O)N(CCCN(C)C[C@H]1Cc3cc(OC)c(OC)cc31)CC2 [Ivabradine HCl] | 0.112 °C |
| COc1cc([C@@H]2c3cc4c(cc3[C@H](O)[C@H]3COC(=O)[C@@H]23)OCO4)cc(OC)c1OC [Picropodophyllin (PPP)] | -0.174 °C |
| Clc1ccc(C(Cn2ccnc2)OCc2ccsc2Cl)c(Cl)c1 (stereo unspecified) [Tioconazole] | -0.0352 °C |
| COc1cc(C(=O)N2CCC(N3CCN(C)CC3)CC2)ccc1Nc1ncc2c(n1)N(C)c1ccccc1C(=O)N2C | 0.121 °C |
| C[C@](N)(Cc1ccc(O)c(O)c1)C(=O)O [L-(-)-α-Methyldopa] | -0.112 °C |
| C[C@@H](Nc1cc(F)cc(F)c1)c1cc(C(=O)N(C)C)cc2c(=O)cc(N3CCOCC3)oc12 | -0.172 °C |
| CC1=C(C(=O)Nc2ccc3[nH]ncc3c2)C(c2ccc(F)cc2)NC(=O)N1 (stereo unspecified) | 0.0333 °C |
| CCOC(=O)c1cnc2ccc(-c3cncc(NS(=O)(=O)c4ccccc4)c3)cn12 | 0.372 °C |
| COc1cc2c(c(OC)c1OC)-c1c(cc3c(c1OC)OCO3)CC(C)C(C)C2 (stereo unspecified) [Schisandrin B (Sch B)] | -0.157 °C |
| CCc1c2c(nc3ccc(O)cc13)-c1cc3c(c(=O)n1C2)COC(=O)[C@]3(O)CC | -0.121 °C |
| CCOC(=O)O[C@]1(C(=O)OCCl)CC[C@H]2[C@@H]3CCC4=CC(=O)C=C[C@]4(C)[C@H]3[C@@H](O)C[C@@]21C [Loteprednol etabonate] | -0.271 °C |
| CCc1cc2c(cc1N1CCC(N3CCOCC3)CC1)C(C)(C)c1[nH]c3cc(C#N)ccc3c1C2=O [Alectinib] | 0.0945 °C |

| SMILES | thermal shift ΔTm of Mpro |
| --- | --- |
| CC(=O)O[C@@H]([C@@H](O)C[C@@H](C)C1=C2C[C@H](O)[C@H]3[C@@]4(C)CCC(=O)C(C)(C)[C@@H]4CC[C@]3(C)[C@@]2(C)CC1)C(C)(C)O [Alisol A 24-acetate] | -0.0526 °C |
| O=C(O)C(=O)O.[NH-][C@@H]1CCCC[C@H]1[NH-].[Pt+2] [Oxaliplatin] | 0.316 °C |
| Cc1ccc(NC(=O)c2ccc(CN3CCN(C)CC3)cc2)cc1Nc1nccc(-c2cccnc2)n1 [Imatinib (STI571)] | -0.00963 °C |
| Cc1ccc(NC(=O)c2ccc(CN3CCN(C)CC3)cc2)cc1Nc1nccc(-c2cccnc2)n1 [Imatinib Mesylate (STI571)] | -0.058 °C |
| CC(C)C(=O)Oc1ccc(CO)cc1[C@H](CCN(C(C)C)C(C)C)c1ccccc1 [Fesoterodine Fumarate] | -0.0365 °C |
| Cc1nn(-c2ccccc2)c(C)c1C=NN1CCN(Cc2ccccc2)CC1 | -0.0914 °C |
| O=C(N/N=C/c1coc2ccccc2c1=O)c1cccnc1 [STAT5 Inhibitor] | 0.0416 °C |
| O=C(NCC1(c2nc(-c3ccccc3)cs2)CCOCC1)c1cccc(-c2noc(C(F)(F)F)n2)c1 | -0.0658 °C |
| O=C(NCc1c(F)cc(F)cc1F)c1cn2c(c(O)c1=O)C(=O)N1[C@H]3CC[C@H](C3)O[C@@H]1C2 [Bictegravir] | -0.0131 °C |
| CC(=O)Oc1ccccc1C(=O)O [Aspirin] | 0.0239 °C |
| O=C(O)CNC(=O)c1c(O)c2ccccc2n(Cc2ccccc2)c1=O | -0.126 °C |
| CNS(=O)(=O)CCc1ccc2[nH]cc(C3CCN(C)CC3)c2c1 [Naratriptan] | 0.556 °C |
| O=C(Nc1nc2cccc(-c3ccc(CN4CCS(=O)(=O)CC4)cc3)n2n1)C1CC1 [Filgotinib (GLPG0634)] | -0.0706 °C |
| COc1ccc2ccc(=O)oc2c1CC=C(C)C [Osthole] | -0.147 °C |
| N=C(N)NS(=O)(=O)c1ccc(N)cc1 [Sulfaguanidine] | -0.0187 °C |
| CSCC1CN(/N=C/c2ccc([N+](=O)[O-])o2)C(=O)O1 (stereo unspecified) [Nifuratel] | 0.153 °C |
| N=C(N)c1ccc2nc(-c3cc(CC(=O)N[C@@H](CC(=O)O)C(=O)O)cc(-c4cc(S(N)(=O)=O)ccc4O)c3O)[nH]c2c1 | -0.039 °C |
| C[C@H](NP(=O)(OC[C@H]1O[C@@H](n2ccc(N)nc2=O)C(F)(F)[C@@H]1O)Oc1ccccc1)C(=O)OCc1ccccc1 (stereo partly specified) [Acelarin] | 0.0358 °C |
| C[C@]12CC[C@H](O)CC1=CC[C@@H]1[C@@H]2CC[C@]2(C)C(n3cnc4ccccc43)=CC[C@@H]12 [Galeterone] | -0.603 °C |
| Cc1c(C(=O)c2cccc3ccccc23)c2cccc3c2n1[C@H](CN1CCOCC1)CO3 [WIN 55,212-2 Mesylate] | -0.0483 °C |
| CC1=C(/C=C/C(C)=C/C=C/C(C)=C/C(=O)O)C(C)(C)CCC1 [Tretinoin] | -0.00731 °C |
| NC(=O)c1cc[n+](CC2=C(C(=O)[O-])N3C(=O)[C@@H](NC(=O)[C@@H](c4ccccc4)S(=O)(=O)O)[C@H]3SC2)cc1 [Cefsulodine sodium] | 0.0267 °C |
| Nc1nc(NC2CC2)cc(-c2cccc(Cl)c2Cl)n1 | -0.103 °C |
| O=[N+]([O-])c1cncn1CCN1CCOCC1 [Nimorazole] | 0.000875 °C |
